Consider 51 compounds from the supplement of paper PMC6331611.

The structures appear in SMILES notation. ± gives the standard deviation of the averaged measurements. Whole data set: some 1,600 compounds, median “normalized growth (OD600, IQM-normalized) in LPM” near 1, cut for the lowest 2% near 0.014. This is one part of the list.

The test relates to Salmonella enterica serovar Typhimurium SL1344. The experiment in a line: normalized growth (OD600, IQM-normalized) in LPM (fraction of plate interquartile mean); higher = more bacterial growth (less inhibition). To be noted: LPM pH 5.8; 10 µM; 16 h.
As to `CS(=O)(=O)c1ccc(C2=C(c3ccccc3)C(=O)OC2)cc1`, the normalized growth came out at 1.07 ± 0.11.

`COc1cc(Cc2cnc(N)nc2N)cc(OC)c1OC` came in with a normalized growth of 0.059 ± 0.024.

In the case of `CCN(CC)CCOC(=O)C(c1ccccc1)C1CCCCC1` (stereo unspecified), the normalized growth turned out to be 1.02 ± 0.02.

In turn, `COCC1=C(C(=O)OC(C)OC(=O)OC(C)C)N2C(=O)[C@@H](NC(=O)/C(=N\OC)c3csc(N)n3)[C@H]2SC1` (stereo partly specified) had a normalized growth of 1.034 ± 0.0056.

`CCCCC(CC)CN1CN(CC(CC)CCCC)CC(C)(N)C1` (stereo unspecified) yielded a normalized growth of 0.779 ± 0.031.

`COc1cc2c(cc1OC)C(=O)C(CC1CCN(Cc3ccccc3)CC1)C2` (stereo unspecified) gave a normalized growth of 0.865 ± 0.043.

The compound `CC(=O)c1ccc2c(c1)N(CCCN1CCC(CCO)CC1)c1ccccc1S2` came in with a normalized growth of 0.997 ± 0.026.

For the compound `CO[C@@]1(NC(=O)Cc2cccs2)C(=O)N2C(C(=O)O)=C(COC(N)=O)CS[C@@H]21`, the normalized growth was found to be 0.417 ± 0.0075.

For `O=C(CCCN1CCC(O)(c2ccc(Br)cc2)CC1)c1ccc(F)cc1`, the normalized growth came to 1.04 ± 0.039.

`CNCC[C@H](Oc1cccc2ccccc12)c1cccs1`: the normalized growth was found to be 1.05 ± 0.046.

On to `CCCN(CCC)C(=O)C(CCC(=O)O)NC(=O)c1ccccc1` (stereo unspecified), for which the normalized growth worked out at 1.09 ± 0.025.

Compound `COc1ccccc1N1CCN(CC(O)COc2cccc3ccccc23)CC1` (stereo unspecified) returned a normalized growth of 1.2 ± 0.045.

`CN1CCC(=C2c3ccccc3CC(=O)c3sccc32)CC1` gave a normalized growth of 1.02 ± 0.035.

In turn, `CCN1C(=O)NC(c2ccccc2)C1=O` (stereo unspecified) displayed a normalized growth of 1.08 ± 0.019.

`N#CC(c1ccc(Cl)cc1)c1c(Cl)cc(-n2ncc(=O)[nH]c2=O)cc1Cl` (stereo unspecified): the normalized growth amounted to 0.927 ± 0.048.

Compound `COc1cc(OC)c(C(=O)CCCN2CCCC2)c(OC)c1` came in with a normalized growth of 1 ± 0.046.

For `CCC(=O)c1ccc(O)cc1`, the normalized growth was 1.12 ± 0.045.

`Cn1ccnc1S` showed a normalized growth of 1.14 ± 0.06.

Compound `Oc1ccc(Cl)c2cccnc12` displayed a normalized growth of 0.847 ± 0.037.

Take `Nc1c(Br)cc(Br)cc1CN[C@H]1CC[C@H](O)CC1`: the normalized growth amounted to 0.864 ± 0.04.

For the compound `CC(C)(Sc1cc(C(C)(C)C)c(O)c(C(C)(C)C)c1)Sc1cc(C(C)(C)C)c(O)c(C(C)(C)C)c1`, the normalized growth was 0.903 ± 0.028.

In the case of `CN1CCCN=C1COC(=O)C(O)(c1ccccc1)C1CCCCC1` (stereo unspecified), the normalized growth came out at 1.23 ± 0.026.

In turn, `CC(C)(Oc1ccc(Cl)cc1)C(=O)O` displayed a normalized growth of 1.04 ± 0.032.

Take `CC(=O)NO`: the normalized growth turned out to be 1.084 ± 0.0087.

As to `CC(=O)N[C@@H](CCC(N)=O)C(=O)O`, the normalized growth was 1.22 ± 0.074.

Consider `CC(C)(S)[C@@H](N)C(=O)O`, for which the normalized growth is 1.083 ± 0.0063.

In turn, `O=C(O)C1CSCN1` (stereo unspecified) gave a normalized growth of 0.963 ± 0.037.

With `CCC(=O)OCC(=O)[C@@]1(OC(=O)CC)[C@H](C)CC2C3C([C@@H](O)C[C@@]21C)[C@@]1(C)C=CC(=O)C=C1C[C@H]3Cl` (stereo partly specified), the normalized growth came to 1.03 ± 0.019.

As for `O=C1O[C@H](CO)[C@@H](O)[C@H](O)[C@H]1O`, the normalized growth came out at 1.01 ± 0.054.

For `CCCCCCCCCCC[C@@H](C[C@@H]1OC(=O)[C@H]1CCCCCC)OC(=O)[C@H](CC(C)C)NC=O`, the normalized growth amounted to 0.762 ± 0.019.

The compound `Nc1ncnc(Nc2ccc(Cl)cc2)n1` yielded a normalized growth of 0.999 ± 0.071.

`CN1CCN(C2=Nc3cc(Cl)ccc3Nc3ccccc32)CC1` yielded a normalized growth of 0.98 ± 0.04.

Consider `CCCCCCCCCCCCCCCC(=O)NCCO`, for which the normalized growth is 0.942 ± 0.046.

For `CO[C@H]1O[C@@H]2O[C@@]3(C)CC[C@H]4[C@H](C)CC[C@@H]([C@H]1C)[C@@]24OO3`, the normalized growth stood at 0.871 ± 0.097.

Turning to `NC12CC3CC(CC(C3)C1)C2`, the normalized growth worked out at 0.919 ± 0.034.

The compound `Clc1ccc(COC(Cn2ccnc2)c2ccc(Cl)cc2Cl)c(Cl)c1` (stereo unspecified) registered a normalized growth of 1.05 ± 0.017.

With `Cc1cc(=O)n(-c2ccccc2)n1C`, the normalized growth is 0.9974 ± 0.0087.

Compound `CC1CCc2c(N3CCC(O)CC3)c(F)cc3c(=O)c(C(=O)O)cn1c23` (stereo unspecified) displayed a normalized growth of 0.0179 ± 0.013.

For `O=C1Cc2cc(CCN3CCN(c4nsc5ccccc45)CC3)c(Cl)cc2N1`, the normalized growth worked out at 1.05 ± 0.027.

Compound `CC(C)/N=c1\cc2n(-c3ccc(Cl)cc3)c3ccccc3nc-2cc1Nc1ccc(Cl)cc1` came in with a normalized growth of 0.965 ± 0.029.

`CC(=O)N(O)CCCCCNC(=O)CCC(=O)N(O)CCCCCNC(=O)CCC(=O)N(O)CCCCCN`: the normalized growth was 0.598 ± 0.051.

As for `CN1CC(=O)NC1=N`, the normalized growth turned out to be 1.12 ± 0.032.

With `CC(C)(C(=O)c1cccnc1)c1cccnc1`, the normalized growth came out at 0.868 ± 0.035.

Regarding `C[C@]12CC[C@@H]3c4ccc(O)cc4CC[C@H]3[C@@H]1CC[C@@H]2OC(=O)CCC1CCCC1`, the normalized growth came to 1.07 ± 0.051.

`CN1CCc2cccc3c2[C@H]1Cc1ccc(O)c(O)c1-3` showed a normalized growth of 0.944 ± 0.063.

The compound `CCC(NC(C)C)C(O)c1ccc(O)c(O)c1` (stereo unspecified) gave a normalized growth of 0.995 ± 0.035.

`CCC(Cc1c(I)cc(I)c(N)c1I)C(=O)O` (stereo unspecified) showed a normalized growth of 1.12 ± 0.081.

For `CCOC(=O)C(C)(C)Oc1ccc(Cl)cc1`, the normalized growth came out at 1.05 ± 0.05.

`C[C@@H]1[C@H](O)[C@@H](C)/C=C/C=C/C=C/C=C/C=C/C=C/C=C/[C@H](O[C@@H]2O[C@H](C)[C@@H](O)[C@H](N)[C@@H]2O)C[C@@H]2O[C@](O)(C[C@@H](O)C[C@@H](O)[C@H](O)CC[C@@H](O)C[C@@H](O)CC(=O)O[C@H]1C)C[C@H](O)[C@H]2C(=O)O` had a normalized growth of 0.906 ± 0.041.

The compound `CO[C@@]1(NC(=O)CSCC#N)C(=O)N2C(C(=O)O)=C(CSc3nnnn3C)CS[C@@H]21` showed a normalized growth of 0.957 ± 0.052.

In the case of `COc1ccc(CN(CCN(C)C)c2ncccn2)cc1`, the normalized growth worked out at 1.11 ± 0.038.
